# Test results reported in the supplement of paper PMC8104966.
# The list shows a part of the results. Single values are uncertain here, since repeats match poorly.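 U2OS cells expressing ACE2 were combined with U2OS cells expressing full-length spike, and imaging quantified fusion as the fraction of nuclei displaying both cell types' fluorescent markers. Non-toxic compounds with a fusion z-score under -3, i.e., over three standard deviations below the plate's DMSO wells, are called inhibitory hits.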
# System: U2OS ACE2 x SARS-CoV-2 spike co-culture
# Assay: cell-cell fusion (fraction fused) z-score vs plate DMSO control; higher = more fusion
# Settings: 30 µM; 5 h; toxicity class: non-toxic, passed QC
row,SMILES,cell-cell fusion (z-score)
1,COC1=CC(=O)C[C@@H](C)[C@]12Oc1c(Cl)c(OC)cc(OC)c1C2=O,inactive: 0.7
2,Cl.NCCCC(N)(C(=O)O)C(F)F (racemic) [DL-alpha-Difluoromethylornithine hydrochloride],inactive: 4.46
3,CCOc1nc2cccc(C(=O)OCc3oc(=O)oc3C)c2n1Cc1ccc(-c2ccccc2-c2nc(=O)o[nH]2)cc1 [Azilsartan Medoxomil],inactive: 2.49
4,NC(=O)CC[C@H](NC(=O)[C@@H](N)CO)C(=O)O,inactive: 1.45
5,CC(O)(CS(=O)(=O)c1ccc(F)cc1)C(=O)Nc1ccc(C#N)c(C(F)(F)F)c1 (centres undefined) [Bicalutamide (Casodex)],inactive: 2.26
6,C=CC[C@@H]1/C=C(\C)C[C@H](C)C[C@H](OC)[C@H]2O[C@@](O)(C(=O)C(=O)N3CCCC[C@H]3C(=O)O[C@H](/C(C)=C/C3CC[C@@H](O)[C@H](OC)C3)[C@H](C)[C@@H](O)CC1=O)[C@H](C)C[C@@H]2OC (some centres undefined),active: -14.2
7,CC1(C)S[C@@H]2[C@H](NC(=O)[C@H](N)c3ccccc3)C(=O)N2[C@H]1C(=O)O [Ampicillin],inactive: 2.01
8,COc1ccc(C(=O)NCc2cccnc2)cc1C(=O)NCc1cccnc1 [Picotamide],inactive: 1.88
9,O=[N+]([O-])O[C@H]1CO[C@H]2[C@@H]1OC[C@H]2O[N+](=O)[O-] [Isosorbide dinitrate],inactive: 1.63
10,S=c1[nH]c(-c2ccccc2)cn1-c1ccccc1,inactive: -0.209
11,CC[C@@H]1C(=O)OC[C@@H]1Cc1cncn1C.O=[N+]([O-])O,inactive: 1.03
12,CC[C@@H]1C(=O)OC[C@@H]1Cc1cncn1C.O=[N+]([O-])O [Pilocarpine nitrate],inactive: 1.09
13,COc1ccccc1OCC(O)CN1CCN(CC(=O)Nc2c(C)cccc2C)CC1.Cl.Cl (centres undefined) [Ranolazine dihydrochloride],inactive: 1.58
14,CCCC(=O)[O][Na] [Sodium butyrate],inactive: 1.94
15,C#CCN[C@H](C)Cc1ccccc1.Cl [R-(-)-Desmethyldeprenyl hydrochloride],inactive: 2.35
16,CO[C@H]1C(=O)[C@]2(C)[C@@H](OC)C[C@H]3OC[C@@]3(OC(C)=O)[C@H]2[C@H](OC(=O)c2ccccc2)[C@]2(O)C[C@H](OC(=O)[C@H](O)[C@@H](NC(=O)OC(C)(C)C)c3ccccc3)C(C)=C1C2(C)C [Cabazitaxel],inactive: -1.14
17,CC[C@@H](CO)NC(=O)[C@@H]1C=C2c3cccc4c3c(cn4C)C[C@H]2N(C)C1.O=C(O)/C=C\C(=O)O [Methysergide maleate],inactive: 2.82
18,COc1cc(N)c(Cl)cc1C(=O)NC[C@@H]1CCN2CCC[C@@H]12.Cl.O,inactive: 3.7
19,CCCC(=O)O[C@]1(C(=O)CO)CC[C@H]2[C@@H]3CCC4=CC(=O)CC[C@]4(C)[C@H]3[C@@H](O)C[C@@]21C [Hydrocortisone butyrate],inactive: 1.27
20,C[C@@](Cc1ccc(O)c(O)c1)(NN)C(=O)O,inactive: 0.267

row,SMILES,cell-cell fusion (z-score)
1,Cl.CN(C)CC\C=C1\c2ccccc2C=Cc2ccccc12 [Cyclobenzaprine hydrochloride],inactive: 2.29
2,CC1(C)CC2C1CCC1(C)OC2(C)CCC1O (centres undefined),inactive: 2.76
3,"Br.CN1C2CC(OC(=O)[C@H](CO)c3ccccc3)CC1C1OC12 (single isomer, unassigned; (-)) [(-)-Scopolamine hydrobromide]",inactive: 1.26
4,O=C(O)[C@H]1O[C@@H](Oc2cc3oc(-c4ccccc4)cc(=O)c3c(O)c2O)[C@H](O)[C@@H](O)[C@@H]1O,inactive: 1.59
5,CN1CCC(c2c[nH]c3ccc(O)cc23)CC1.O=C(O)/C=C\C(=O)O,inactive: 1.88
6,CC(=O)[C@H]1CCC2C3CC=C4C[C@@H](OS(=O)(=O)[O-])CC[C@]4(C)C3CC[C@@]21C.[Na+] (some centres undefined) [Pregnenolone sulfate sodium],inactive: 0.0618
7,C=CCc1cccc(/C=N/NC(=O)CN2CCN(Cc3ccccc3)CC2)c1O,inactive: 0.246
8,CN(C)CC(c1ccc(O)cc1)C1(O)CCCCC1 (centres undefined) [Desvenlafaxine],inactive: 3.3
9,COC(=O)c1ccc2c(c1)NC(=O)/C2=C(\Nc1ccc(N(C)C(=O)CN2CCN(C)CC2)cc1)c1ccccc1 [BIBF1120 (Vargatef)],inactive: 1.62
10,Nc1nc(N)c2nc(CNc3ccc(C(=O)NC(CCC(=O)O)C(=O)O)cc3)cnc2n1 (centres undefined),inactive: 1.7
11,COc1ccc([C@@H]2CC(=O)c3c(O)cc(O[C@@H]4O[C@H](CO[C@H]5O[C@@H](C)[C@H](O)[C@@H](O)[C@H]5O)[C@@H](O)[C@H](O)[C@H]4O)cc3O2)cc1O,inactive: 1.91
12,CC(C)NCC(O)COc1cccc2ccccc12.Cl (centres undefined) [Propranolol hydrochloride],inactive: 2.44
13,COc1ccc(NS(=O)(=O)c2ccc(N)cc2)nn1,inactive: 2.41
14,O=NN(CCCl)C(=O)NC1CCCCC1 [Lomustine (CeeNU)],inactive: 1.55
15,CC(C(=O)O)c1cccc(Oc2ccccc2)c1 (centres undefined),inactive: -0.922
16,N#Cc1ccc(C(c2ccc(C#N)cc2)n2cncn2)cc1 [Letrozole],inactive: 1.12
17,COc1cc2ncnc(Nc3ccc(F)c(Cl)c3)c2cc1OCCCN1CCOCC1 [Gefitinib (ZD1839)],inactive: -0.815
18,COc1cc2ncnc(Nc3ccc(F)c(Cl)c3)c2cc1OCCCN1CCOCC1 [Gefitinib (Iressa)],inactive: 1.65
19,CCCCCCCCCCCCCCCCCC(=O)O.CC[C@H]1OC(=O)[C@H](C)[C@@H](O[C@H]2C[C@@](C)(OC)[C@@H](O)[C@H](C)O2)[C@H](C)[C@@H](O[C@@H]2O[C@H](C)C[C@H](N(C)C)[C@H]2O)[C@](C)(O)C[C@@H](C)C(=O)[C@H](C)[C@@H](O)[C@]1(C)O,inactive: 1.89

# Two consecutive records already listed, quoted:
row,SMILES,cell-cell fusion (z-score)
1,Cl.CN(C)CC\C=C1\c2ccccc2C=Cc2ccccc12 [Cyclobenzaprine hydrochloride],inactive: 2.29
2,CC1(C)CC2C1CCC1(C)OC2(C)CCC1O (centres undefined),inactive: 2.76
